In patent publication US20200054555A1, “CONTACT LENS WITH FUNCTIONAL COMPONENTS AND PRODUCTS THEREOF” (UNICON OPTICAL CO., LTD., priority 2018, published 2020):
Some of these results come from one statement about several compounds together.

Assay: accumulated release of functional components from the contact lens over time, detected by high performance liquid chromatography
Format: physicochemical
Conditions: HEMA contact lens, 38% water by weight, with a cyclic oligosaccharide or cyclic polysaccharide; FIG. 2, 4, 5, 6
Description: Further, the present invention uses high performance liquid chromatography to detect accumulation of the released functional components of the contact lens with increasing time. It is learned from FIG. 2: the contact lens of the present invention, which is a HEMA lens made up of 38% water by weight and a cyclic oligosaccharide or cyclic polysaccharide, can persistently release Vitamin B12 for a longer period of time (more than 12 hours). It is learned from FIG. 3: the contact lens of the present invention, which is an organosilicon hydrogel contact lens made up of 43% water by weight and a cyclic oligosaccharide or cyclic polysaccharide, can persistently release Vitamin B12 for a longer period of time (more than 12 hours). It is learned from FIG. 4: the contact lens of the present invention, which contains HEMA and 38% water by weight and a cyclic oligosaccharide or cyclic polysaccharide, can persistently release curcumin for a longer period of time (more than 20 hours). It is learned from FIG. 5: the contact lens of the present invention, which contains HEMA and 38% water by weight and a cyclic oligosaccharide or cyclic polysaccharide, can persistently release quercetin in a longer time interval (more than 20 hours). […]

SMILES	period of persistent release of the functional component from the contact lens
O=c1c(O)c(-c2ccc(O)c(O)c2)oc2cc(O)cc(O)c12 [quercetin]	more than 20 hours
COc1cc(/C=C/C(=O)CC(=O)/C=C/c2ccc(O)c(OC)c2)ccc1O [curcumin]	more than 20 hours
